Reference: publication PMC10380766 (International Journal of Molecular Sciences, 2023)

Assay: general procedure: Fmoc solid-phase peptide synthesis; Rink Amide Protide (LL) resin; DIC/Oxyma Pure
Details: whole synthesis, 220 nm

| Substance | final HPLC purity [%] |
| --- | --- |
| CF-XAGYS5*LGKS5*NLKALAALAKKIL | >99 |
| CF-XAGYLLGKINLKALAAS5*AKKS5*L | >99 |
| CF-XAS5*YLLS5*KINLKALAALAKKIL | >99 |
| CF-XAGYLLGKINLKALAALAKKIL | >99 |

The same purity stands for every peptide and may come from a single statement.
